Results published in the supplement of paper PMC10849652.
The other results are listed elsewhere or left out.

Sequences of proteins named here, by UniProt entry; tags and fusion partners are left off. A change or cut given only in a name is not applied to a line headed by its entry.
UniProt Q92734, whole entry, looked up: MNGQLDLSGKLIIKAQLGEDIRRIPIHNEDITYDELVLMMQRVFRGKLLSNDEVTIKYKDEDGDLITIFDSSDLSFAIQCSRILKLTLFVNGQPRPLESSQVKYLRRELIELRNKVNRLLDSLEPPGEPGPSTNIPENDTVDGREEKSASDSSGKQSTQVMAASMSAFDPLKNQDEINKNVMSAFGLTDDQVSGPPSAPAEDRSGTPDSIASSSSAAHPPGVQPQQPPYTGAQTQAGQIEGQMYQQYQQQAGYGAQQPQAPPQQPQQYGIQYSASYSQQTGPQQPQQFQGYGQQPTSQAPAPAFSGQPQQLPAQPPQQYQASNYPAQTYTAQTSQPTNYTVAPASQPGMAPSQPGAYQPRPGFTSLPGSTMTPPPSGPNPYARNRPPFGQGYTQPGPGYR
UniProt P21980: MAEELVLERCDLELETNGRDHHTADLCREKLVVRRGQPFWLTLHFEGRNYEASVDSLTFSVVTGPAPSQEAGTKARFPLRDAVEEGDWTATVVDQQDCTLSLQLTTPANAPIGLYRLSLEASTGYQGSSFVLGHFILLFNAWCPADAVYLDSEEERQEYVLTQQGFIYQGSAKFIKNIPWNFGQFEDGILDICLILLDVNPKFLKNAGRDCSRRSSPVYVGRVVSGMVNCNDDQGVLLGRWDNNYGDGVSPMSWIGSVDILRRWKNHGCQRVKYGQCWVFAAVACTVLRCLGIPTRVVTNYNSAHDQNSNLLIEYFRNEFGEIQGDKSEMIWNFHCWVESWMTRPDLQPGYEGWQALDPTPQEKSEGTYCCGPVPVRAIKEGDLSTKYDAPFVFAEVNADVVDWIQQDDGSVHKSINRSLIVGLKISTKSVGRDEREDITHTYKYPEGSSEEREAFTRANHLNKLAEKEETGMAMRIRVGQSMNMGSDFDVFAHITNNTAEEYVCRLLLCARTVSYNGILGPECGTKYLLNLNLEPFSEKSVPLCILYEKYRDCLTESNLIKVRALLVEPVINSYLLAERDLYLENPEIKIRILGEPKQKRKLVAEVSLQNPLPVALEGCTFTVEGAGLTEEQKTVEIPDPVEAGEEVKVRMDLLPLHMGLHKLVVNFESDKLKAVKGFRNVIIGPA
UniProt Q13769: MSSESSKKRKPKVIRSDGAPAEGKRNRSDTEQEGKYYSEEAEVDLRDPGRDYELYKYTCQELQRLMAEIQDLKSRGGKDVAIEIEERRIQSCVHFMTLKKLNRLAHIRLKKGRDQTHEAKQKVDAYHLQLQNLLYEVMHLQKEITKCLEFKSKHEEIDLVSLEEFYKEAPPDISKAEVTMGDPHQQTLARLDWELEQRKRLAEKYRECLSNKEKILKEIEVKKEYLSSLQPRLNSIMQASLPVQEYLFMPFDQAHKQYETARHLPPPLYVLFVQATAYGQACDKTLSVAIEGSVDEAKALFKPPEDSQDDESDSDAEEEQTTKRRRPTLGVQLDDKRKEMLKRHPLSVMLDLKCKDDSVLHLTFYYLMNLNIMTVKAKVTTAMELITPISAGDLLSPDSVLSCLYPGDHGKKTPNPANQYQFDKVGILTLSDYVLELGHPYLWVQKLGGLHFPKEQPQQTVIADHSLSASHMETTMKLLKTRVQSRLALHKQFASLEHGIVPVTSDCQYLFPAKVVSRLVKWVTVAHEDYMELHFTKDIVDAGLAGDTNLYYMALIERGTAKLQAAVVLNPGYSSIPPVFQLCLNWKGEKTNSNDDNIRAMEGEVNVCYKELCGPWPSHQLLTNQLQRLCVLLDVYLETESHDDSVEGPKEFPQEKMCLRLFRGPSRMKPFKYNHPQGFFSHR
UniProt Q3LXA3: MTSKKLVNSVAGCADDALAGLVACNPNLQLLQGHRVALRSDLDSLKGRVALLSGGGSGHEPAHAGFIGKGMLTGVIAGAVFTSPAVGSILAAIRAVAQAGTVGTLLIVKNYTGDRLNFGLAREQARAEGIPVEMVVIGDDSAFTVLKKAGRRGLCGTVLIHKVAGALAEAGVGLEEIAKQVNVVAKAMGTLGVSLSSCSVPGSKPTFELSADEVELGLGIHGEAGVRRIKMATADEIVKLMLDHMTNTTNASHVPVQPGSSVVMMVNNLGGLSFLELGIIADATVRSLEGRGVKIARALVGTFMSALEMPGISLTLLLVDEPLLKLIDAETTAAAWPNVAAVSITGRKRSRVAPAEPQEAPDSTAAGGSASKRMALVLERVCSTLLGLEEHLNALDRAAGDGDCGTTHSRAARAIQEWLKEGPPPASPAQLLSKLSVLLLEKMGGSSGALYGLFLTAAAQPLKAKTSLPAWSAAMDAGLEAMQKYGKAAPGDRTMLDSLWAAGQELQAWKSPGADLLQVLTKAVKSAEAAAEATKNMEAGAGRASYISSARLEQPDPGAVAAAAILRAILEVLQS
UniProt Q8IYQ7: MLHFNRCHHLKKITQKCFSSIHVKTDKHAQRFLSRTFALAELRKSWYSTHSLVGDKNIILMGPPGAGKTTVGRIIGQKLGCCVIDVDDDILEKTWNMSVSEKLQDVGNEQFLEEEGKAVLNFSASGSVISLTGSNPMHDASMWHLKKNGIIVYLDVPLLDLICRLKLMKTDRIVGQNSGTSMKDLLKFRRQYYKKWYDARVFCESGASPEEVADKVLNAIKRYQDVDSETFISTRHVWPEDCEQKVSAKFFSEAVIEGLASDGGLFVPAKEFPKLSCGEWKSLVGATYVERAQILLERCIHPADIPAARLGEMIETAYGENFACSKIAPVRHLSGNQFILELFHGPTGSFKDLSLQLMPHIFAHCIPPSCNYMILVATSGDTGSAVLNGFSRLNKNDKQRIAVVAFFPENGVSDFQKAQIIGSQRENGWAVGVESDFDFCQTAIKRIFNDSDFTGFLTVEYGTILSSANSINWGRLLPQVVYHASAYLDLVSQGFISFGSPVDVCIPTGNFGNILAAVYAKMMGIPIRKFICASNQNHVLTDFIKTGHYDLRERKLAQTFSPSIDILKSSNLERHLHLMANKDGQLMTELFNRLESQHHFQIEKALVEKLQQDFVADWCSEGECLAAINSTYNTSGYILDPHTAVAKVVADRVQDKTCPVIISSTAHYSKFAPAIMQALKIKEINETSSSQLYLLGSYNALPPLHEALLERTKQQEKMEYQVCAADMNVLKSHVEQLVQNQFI
UniProt P17987, whole entry, looked up: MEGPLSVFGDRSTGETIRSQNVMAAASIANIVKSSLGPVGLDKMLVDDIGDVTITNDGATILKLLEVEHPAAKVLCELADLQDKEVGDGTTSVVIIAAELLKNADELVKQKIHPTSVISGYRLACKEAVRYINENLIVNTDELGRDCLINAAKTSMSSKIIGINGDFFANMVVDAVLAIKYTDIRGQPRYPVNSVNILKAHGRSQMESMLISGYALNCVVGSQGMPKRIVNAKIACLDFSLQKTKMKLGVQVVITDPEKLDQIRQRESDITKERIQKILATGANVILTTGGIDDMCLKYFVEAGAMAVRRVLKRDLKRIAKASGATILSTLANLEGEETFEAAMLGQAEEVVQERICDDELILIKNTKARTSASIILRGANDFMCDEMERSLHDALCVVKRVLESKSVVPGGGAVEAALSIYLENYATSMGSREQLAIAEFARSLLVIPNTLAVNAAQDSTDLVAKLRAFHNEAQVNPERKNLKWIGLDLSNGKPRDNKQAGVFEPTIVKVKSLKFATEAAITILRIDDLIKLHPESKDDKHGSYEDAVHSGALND
UniProt P35443: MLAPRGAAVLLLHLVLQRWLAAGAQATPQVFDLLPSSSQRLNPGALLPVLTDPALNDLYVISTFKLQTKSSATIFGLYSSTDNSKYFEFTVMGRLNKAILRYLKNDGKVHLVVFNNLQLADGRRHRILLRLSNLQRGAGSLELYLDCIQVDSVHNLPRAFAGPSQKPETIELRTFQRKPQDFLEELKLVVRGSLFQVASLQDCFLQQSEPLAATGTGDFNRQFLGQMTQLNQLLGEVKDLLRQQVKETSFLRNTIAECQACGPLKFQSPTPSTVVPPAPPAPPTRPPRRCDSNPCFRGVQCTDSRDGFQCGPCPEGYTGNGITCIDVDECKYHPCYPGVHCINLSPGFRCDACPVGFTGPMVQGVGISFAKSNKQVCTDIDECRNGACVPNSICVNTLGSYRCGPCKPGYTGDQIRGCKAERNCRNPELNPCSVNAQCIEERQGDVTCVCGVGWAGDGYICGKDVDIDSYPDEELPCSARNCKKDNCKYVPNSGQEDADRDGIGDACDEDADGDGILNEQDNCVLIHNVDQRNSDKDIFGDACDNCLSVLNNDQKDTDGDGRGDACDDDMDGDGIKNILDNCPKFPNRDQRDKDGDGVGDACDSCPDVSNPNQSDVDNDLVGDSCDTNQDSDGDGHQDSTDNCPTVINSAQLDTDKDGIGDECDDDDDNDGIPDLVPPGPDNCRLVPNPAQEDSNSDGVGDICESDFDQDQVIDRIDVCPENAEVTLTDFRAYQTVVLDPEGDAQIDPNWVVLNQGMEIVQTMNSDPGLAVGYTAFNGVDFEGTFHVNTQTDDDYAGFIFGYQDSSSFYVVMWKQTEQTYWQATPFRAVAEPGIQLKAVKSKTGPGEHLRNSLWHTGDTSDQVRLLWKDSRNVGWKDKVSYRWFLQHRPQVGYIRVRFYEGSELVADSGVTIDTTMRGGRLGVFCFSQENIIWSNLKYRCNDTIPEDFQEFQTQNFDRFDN
UniProt Q9Y5J9: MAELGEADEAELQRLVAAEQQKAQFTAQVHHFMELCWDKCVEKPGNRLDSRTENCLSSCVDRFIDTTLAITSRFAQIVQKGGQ
UniProt Q9NPL8: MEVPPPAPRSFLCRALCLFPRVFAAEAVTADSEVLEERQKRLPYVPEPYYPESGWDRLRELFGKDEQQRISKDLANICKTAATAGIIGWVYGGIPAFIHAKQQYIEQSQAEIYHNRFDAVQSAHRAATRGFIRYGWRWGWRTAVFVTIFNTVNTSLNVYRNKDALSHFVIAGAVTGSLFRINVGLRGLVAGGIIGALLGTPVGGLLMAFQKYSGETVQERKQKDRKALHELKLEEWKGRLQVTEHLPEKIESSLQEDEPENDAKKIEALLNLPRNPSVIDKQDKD
UniProt O95551: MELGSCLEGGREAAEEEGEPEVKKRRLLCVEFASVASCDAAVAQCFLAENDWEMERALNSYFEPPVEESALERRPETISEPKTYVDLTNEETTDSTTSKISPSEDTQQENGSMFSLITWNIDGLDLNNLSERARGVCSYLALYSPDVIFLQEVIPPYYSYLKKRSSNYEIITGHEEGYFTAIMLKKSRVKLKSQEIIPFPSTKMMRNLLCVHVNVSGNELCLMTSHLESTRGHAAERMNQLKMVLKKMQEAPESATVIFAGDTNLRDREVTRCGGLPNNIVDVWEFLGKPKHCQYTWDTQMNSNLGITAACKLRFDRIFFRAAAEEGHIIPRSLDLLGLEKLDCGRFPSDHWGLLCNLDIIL
UniProt Q15554: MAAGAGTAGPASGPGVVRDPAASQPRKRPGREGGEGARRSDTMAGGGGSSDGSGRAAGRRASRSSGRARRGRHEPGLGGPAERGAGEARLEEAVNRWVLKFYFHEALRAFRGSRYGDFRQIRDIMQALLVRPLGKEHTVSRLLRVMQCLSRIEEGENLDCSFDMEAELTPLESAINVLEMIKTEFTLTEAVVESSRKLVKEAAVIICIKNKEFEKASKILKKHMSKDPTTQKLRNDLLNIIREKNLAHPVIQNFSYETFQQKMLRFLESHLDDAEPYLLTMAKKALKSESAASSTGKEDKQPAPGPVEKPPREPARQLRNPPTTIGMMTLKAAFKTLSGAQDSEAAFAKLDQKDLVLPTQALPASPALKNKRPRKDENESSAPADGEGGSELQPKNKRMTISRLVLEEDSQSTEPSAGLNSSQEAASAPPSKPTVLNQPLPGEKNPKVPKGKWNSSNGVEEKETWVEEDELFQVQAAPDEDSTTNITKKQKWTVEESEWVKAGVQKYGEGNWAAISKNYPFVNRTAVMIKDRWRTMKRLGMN
UniProt O43493: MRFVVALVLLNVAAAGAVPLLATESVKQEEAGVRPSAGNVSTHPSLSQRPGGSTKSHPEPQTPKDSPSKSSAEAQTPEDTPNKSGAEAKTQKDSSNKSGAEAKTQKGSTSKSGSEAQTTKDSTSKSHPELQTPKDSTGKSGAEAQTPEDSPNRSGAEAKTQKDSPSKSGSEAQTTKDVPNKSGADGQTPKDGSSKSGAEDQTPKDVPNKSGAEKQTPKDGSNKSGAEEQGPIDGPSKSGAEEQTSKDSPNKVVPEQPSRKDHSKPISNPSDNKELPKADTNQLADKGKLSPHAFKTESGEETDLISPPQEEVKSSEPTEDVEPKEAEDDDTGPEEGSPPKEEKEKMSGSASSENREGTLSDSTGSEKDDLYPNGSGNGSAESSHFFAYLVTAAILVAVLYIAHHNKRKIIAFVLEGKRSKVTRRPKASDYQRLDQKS
UniProt Q96CP7: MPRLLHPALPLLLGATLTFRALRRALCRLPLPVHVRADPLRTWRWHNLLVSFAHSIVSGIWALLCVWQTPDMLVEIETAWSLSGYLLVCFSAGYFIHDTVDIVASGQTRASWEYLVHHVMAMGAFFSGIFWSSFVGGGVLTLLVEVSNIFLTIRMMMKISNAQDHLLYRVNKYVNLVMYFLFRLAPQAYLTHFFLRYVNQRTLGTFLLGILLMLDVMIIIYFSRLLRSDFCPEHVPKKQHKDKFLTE

How the values were obtained:
Assay in all cases: log2 fold change, soluble protein after heating vs DMSO (PISA); higher = thermal stabilisation; K562 cells, 10 uM, 30 min; active = over 0.2 and 3.5 SD of the protein, either way, in both replicates (recomputed)
[1] = compound: CC[C@@H]1C(=O)N(C)c2cnc(Nc3ccc(C(=O)NC4CCN(C)CC4)cc3OC)nc2N1C1CCCC1
How it was run: (§1)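 K562 cells at 2×10^6 cells/mL were treated for 30 min with 10 μM compound, and aliquots were heated for 3 min over 48°C-58°C before pooling. Extraction used PBS with 0.5% NP-40 at 4°C, and soluble protein was the supernatant after 21,000xg for 90 min, measured by TMTpro 16plex LC-MS/MS with channel sums equalised. Thermal stability values, relative to control samples and from duplicates, are log2 fold changes.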

volasertib = compound: CC[C@@H]1C(=O)N(C)c2cnc(Nc3ccc(C(=O)N[C@H]4CC[C@H](N5CCN(CC6CC6)CC5)CC4)cc3OC)nc2N1C(C)C [volasertib]
How it was run: as §1

[2] = compound: CC[C@H](C)N1C=C(C2=C(C=C(C=C21)C3=CN=C(C=C3)N4CCNCC4)C(=O)NCC5=C(C=C(NC5=O)C)C)C
How it was run: as §1

epoxomicin = compound: CC[C@H](C)[C@@H](C(=O)N[C@@H]([C@@H](C)O)C(=O)N[C@@H](CC(C)C)C(=O)[C@]1(CO1)C)NC(=O)[C@H]([C@@H](C)CC)N(C)C(=O)C [epoxomicin]
How it was run: as §1

[3] = compound: CCn1c(C(=O)N(C2CC2)C2CC2)cc2c3c(ncn3C)c(Nc3cc(C)n(C)n3)nc21
How it was run: as §1

[4] = compound: CCn1cc(-c2ccnc3[nH]c(-c4cccc(CN(C)C)c4)cc23)c(-c2ccc(NC(=O)N(C)C)cc2)n1
How it was run: as §1

[5] = compound: CN(C)CC(=O)Nc1ccc2[nH]c(=O)c3ccccc3c2c1
How it was run: as §1

rosiglitazone = compound: CN(CCOC1=CC=C(C=C1)C[C@H]2C(=O)NC(=O)S2)C3=CC=CC=N3 (racemic) [rosiglitazone]
How it was run: as §1

[6] = compound: CN1C2=C(C3=C1C(=O)N(N=C3)CC4=CC(=CC=C4)N)SC(=C2)S(=O)C
How it was run: as §1

[7] = compound: CN1CCC(CNc2ccc3ncc(-c4cccc(OC(F)(F)F)c4)n3n2)CC1
How it was run: as §1

Measured: log2 fold change

TBL3 (UniProt Q12788)
inactive: [1] 0.099 | volasertib 0.018 | [2] -0.049 | epoxomicin -0.116 | [3] -0.094 | [4] 0.036 | [5] -0.045 | rosiglitazone 0.001 | [6] 0.14 | [7] 0.216

TIA1 (UniProt P31483)
inactive: [1] 0.037 | volasertib -0.005 | [2] 0.02 | epoxomicin -0.043 | [3] -0.038 | [4] -0.053 | [5] -0.004 | rosiglitazone -0.015 | [6] 0.011 | [7] 0.09

TFG (UniProt Q92734)
inactive: [1] -0.027 | volasertib 0.082 | [2] -0.011 | epoxomicin 0.023 | [3] 0.022 | [4] -0.006 | [5] -0.017 | rosiglitazone -0.012 | [6] -0.028 | [7] -0.054

TIMP1 (UniProt P01033)
inactive: [1] 0.046 | volasertib 0.15 | [2] -0.02 | epoxomicin -0.074 | [3] 0.034 | [4] 0.072 | [5] -0.084 | rosiglitazone -0.085 | [6] -0.032 | [7] 0.182

TGM2 (UniProt P21980)
inactive: [1] 0.013 | volasertib -0.021 | [2] 0.004 | epoxomicin 0.014 | [3] 0.01 | [4] -0.023 | [5] -0.014 | rosiglitazone 0.022 | [6] -0.079 | [7] -0.057

THOC5 (UniProt Q13769)
inactive: [1] -0.009 | volasertib -0.061 | [2] 0.043 | epoxomicin -0.003 | [3] 0.011 | [4] -0.005 | [5] 0.006 | rosiglitazone 0.014 | [6] -0.015 | [7] 0.008

TIMM23 (UniProt O14925)
inactive: [1] -0.001 | volasertib 0.056 | [2] -0.02 | epoxomicin 0.013 | [3] 0.015 | [4] -0.002 | [5] -0.001 | rosiglitazone 0.041 | [6] -0.073 | [7] 0.099

TIMM9 (UniProt Q9Y5J7)
inactive: [1] 0.071 | volasertib -0.012 | [2] -0.016 | epoxomicin 0.266 | [3] 0.019 | [4] 0.062 | [5] -0.008 | rosiglitazone 0.021 | [6] -0.076 | [7] 0.219

TKFC (UniProt Q3LXA3)
inactive: [1] 0.03 | volasertib -0.023 | [2] -0.007 | epoxomicin -0.01 | [3] 0.018 | [4] 0.001 | [5] -0.025 | rosiglitazone 0.019 | [6] -0.068 | [7] -0.036

TIPIN (UniProt Q9BVW5)
inactive: [1] 0.075 | volasertib -0.002 | [2] 0.01 | epoxomicin 0.042 | [3] 0.001 | [4] 0.025 | [5] 0.017 | rosiglitazone 0.021 | [6] -0.046 | [7] -0.048

THG1L (UniProt Q9NWX6)
inactive: [1] 0.034 | volasertib -0.032 | [2] -0.036 | epoxomicin 0.024 | [3] 0.003 | [4] -0.024 | [5] 0.007 | rosiglitazone 0.042 | [6] -0.04 | [7] 0.014

TESC (UniProt Q96BS2)
inactive: [1] -0.062 | volasertib -0.046 | [2] 0.054 | epoxomicin 0.123 | [3] 0.068 | [4] 0 | [5] -0.028 | rosiglitazone 0.09 | [6] -0.067 | [7] -0.08

THUMPD1 (UniProt Q9NXG2)
inactive: [1] -0.043 | volasertib -0.055 | [2] -0.001 | epoxomicin 0.014 | [3] 0.019 | [4] -0.001 | [5] 0.017 | rosiglitazone 0.022 | [6] -0.037 | [7] -0.034

TCF3 (UniProt P15923)
inactive: [1] -0.014 | volasertib -0.052 | [2] -0.012 | epoxomicin 0.08 | [3] 0.008 | [4] 0.046 | [5] 0.036 | rosiglitazone 0.027 | [6] 0.016 | [7] -0.044

Reprinted from above (nine entries):
TIA1 (UniProt P31483)
inactive: [1] 0.037 | volasertib -0.005 | [2] 0.02 | epoxomicin -0.043 | [3] -0.038 | [4] -0.053 | [5] -0.004 | rosiglitazone -0.015 | [6] 0.011 | [7] 0.09

TFG (UniProt Q92734)
inactive: [1] -0.027 | volasertib 0.082 | [2] -0.011 | epoxomicin 0.023 | [3] 0.022 | [4] -0.006 | [5] -0.017 | rosiglitazone -0.012 | [6] -0.028 | [7] -0.054

TIMP1 (UniProt P01033)
inactive: [1] 0.046 | volasertib 0.15 | [2] -0.02 | epoxomicin -0.074 | [3] 0.034 | [4] 0.072 | [5] -0.084 | rosiglitazone -0.085 | [6] -0.032 | [7] 0.182

TGM2 (UniProt P21980)
inactive: [1] 0.013 | volasertib -0.021 | [2] 0.004 | epoxomicin 0.014 | [3] 0.01 | [4] -0.023 | [5] -0.014 | rosiglitazone 0.022 | [6] -0.079 | [7] -0.057

THOC5 (UniProt Q13769)
inactive: [1] -0.009 | volasertib -0.061 | [2] 0.043 | epoxomicin -0.003 | [3] 0.011 | [4] -0.005 | [5] 0.006 | rosiglitazone 0.014 | [6] -0.015 | [7] 0.008

TIMM23 (UniProt O14925)
inactive: [1] -0.001 | volasertib 0.056 | [2] -0.02 | epoxomicin 0.013 | [3] 0.015 | [4] -0.002 | [5] -0.001 | rosiglitazone 0.041 | [6] -0.073 | [7] 0.099

TIMM9 (UniProt Q9Y5J7)
inactive: [1] 0.071 | volasertib -0.012 | [2] -0.016 | epoxomicin 0.266 | [3] 0.019 | [4] 0.062 | [5] -0.008 | rosiglitazone 0.021 | [6] -0.076 | [7] 0.219

TKFC (UniProt Q3LXA3)
inactive: [1] 0.03 | volasertib -0.023 | [2] -0.007 | epoxomicin -0.01 | [3] 0.018 | [4] 0.001 | [5] -0.025 | rosiglitazone 0.019 | [6] -0.068 | [7] -0.036

TIPIN (UniProt Q9BVW5)
inactive: [1] 0.075 | volasertib -0.002 | [2] 0.01 | epoxomicin 0.042 | [3] 0.001 | [4] 0.025 | [5] 0.017 | rosiglitazone 0.021 | [6] -0.046 | [7] -0.048

(further entries)

THNSL1 (UniProt Q8IYQ7)
inactive: [1] -0.004 | volasertib 0.049 | [2] 0.043 | epoxomicin -0.003 | [3] -0.054 | [4] -0.095 | [5] -0.003 | rosiglitazone 0.03 | [6] -0.016 | [7] -0.06

TCP1 (UniProt P17987)
inactive: [1] -0.013 | volasertib 0.004 | [2] -0.007 | epoxomicin 0.003 | [3] -0.002 | [4] 0.015 | [5] -0.001 | rosiglitazone 0.002 | [6] -0.042 | [7] 0

THBS4 (UniProt P35443)
inactive: [1] -0.057 | volasertib -0.02 | [2] -0.069 | epoxomicin -0.393 | [3] -0.073 | [4] 0.125 | [5] -0.116 | rosiglitazone 0.14 | [6] 0.31 | [7] -0.185

TBC1D22A (UniProt Q8WUA7)
inactive: [1] 0.022 | volasertib -0.086 | [2] 0 | epoxomicin -0.014 | [3] -0.005 | [4] -0.022 | [5] -0.01 | rosiglitazone 0.025 | [6] -0.093 | [7] -0.014

TCEA1 (UniProt P23193)
inactive: [1] -0.063 | volasertib -0.013 | [2] 0.033 | epoxomicin 0.071 | [3] 0.013 | [4] 0.011 | [5] -0.024 | rosiglitazone 0.024 | [6] -0.019 | [7] -0.021

TGFB1 (UniProt P01137)
inactive: [1] 0.058 | volasertib 0.015 | [2] -0.014 | epoxomicin -0.004 | [3] 0.024 | [4] 0.028 | [5] 0 | rosiglitazone -0.003 | [6] -0.026 | [7] 0.106

TIMM8B (UniProt Q9Y5J9)
inactive: [1] 0.004 | volasertib -0.182 | [2] -0.068 | epoxomicin 0.527 | [3] 0.073 | [4] -0.115 | [5] 0.035 | rosiglitazone -0.024 | [6] -0.178 | [7] 0.167

TBC1D4 (UniProt O60343)
inactive: [1] -0.094 | volasertib -0.064 | [2] 0.016 | epoxomicin -0.014 | [3] -0.053 | [4] -0.058 | [5] -0.001 | rosiglitazone 0.071 | [6] -0.019 | [7] -0.049

TBCB (UniProt Q99426)
inactive: [1] -0.064 | volasertib -0.133 | [2] 0.046 | epoxomicin 0.051 | [3] 0.011 | [4] -0.015 | [5] 0.046 | rosiglitazone 0.015 | [6] -0.02 | [7] -0.126

TBL2 (UniProt Q9Y4P3)
inactive: [1] 0.073 | volasertib 0.026 | [2] 0.086 | epoxomicin -0.238 | [3] -0.051 | [4] 0.056 | [5] -0.039 | rosiglitazone -0.032 | [6] 0.134 | [7] 0.142

THOC3 (UniProt Q96J01)
inactive: [1] -0.057 | volasertib -0.084 | [2] 0.02 | epoxomicin 0.005 | [3] -0.014 | [4] -0.078 | [5] -0.008 | rosiglitazone -0.006 | [6] -0.034 | [7] 0.01

TIMMDC1 (UniProt Q9NPL8)
inactive: [1] -0.015 | volasertib 0.022 | [2] 0.008 | epoxomicin -0.002 | [3] 0.021 | [4] 0.002 | [5] -0.038 | rosiglitazone 0.004 | [6] -0.006 | [7] 0.004

TDP2 isoform 2 (UniProt O95551)
inactive: [1] -0.065 | volasertib -0.026 | [2] 0.016 | epoxomicin 0.068 | [3] 0.034 | [4] -0.074 | [5] -0.026 | rosiglitazone 0.037 | [6] -0.038 | [7] -0.1

TERF2 (UniProt Q15554)
inactive: [1] 0.094 | volasertib 0.053 | [2] 0.186 | epoxomicin -0.126 | [3] -0.059 | [4] 0.1 | [5] -0.01 | rosiglitazone 0.003 | [6] -0.084 | [7] 0.083

TGOLN2 isoform 7 (UniProt O43493)
inactive: [1] 0.021 | volasertib 0.081 | [2] -0.06 | epoxomicin 0.008 | [3] 0.011 | [4] -0.025 | [5] -0.047 | rosiglitazone -0.049 | [6] -0.018 | [7] -0.008

TLCD1 (UniProt Q96CP7)
inactive: [1] -0.025 | volasertib -0.173 | [2] -0.041 | epoxomicin -0.019 | [3] 0.159 | [4] -0.089 | [5] 0.051 | rosiglitazone 0.01 | [6] 0.036 | [7] -0.17
